Data as given in paper PMC7449961.
These are yes or no findings as the source states them, for the method shown. Some entries that bind do so weakly or less than the wild type.

The chains behind the UniProt entries cited, without tags or fusion partners. Residues count along the entry.
UniProt P70297, residues 367-523: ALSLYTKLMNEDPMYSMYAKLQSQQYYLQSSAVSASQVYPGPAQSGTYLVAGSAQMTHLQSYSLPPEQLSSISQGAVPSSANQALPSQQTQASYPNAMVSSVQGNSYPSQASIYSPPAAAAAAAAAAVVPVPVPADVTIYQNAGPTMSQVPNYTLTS
UniProt Q9WUU8, residues 259-554: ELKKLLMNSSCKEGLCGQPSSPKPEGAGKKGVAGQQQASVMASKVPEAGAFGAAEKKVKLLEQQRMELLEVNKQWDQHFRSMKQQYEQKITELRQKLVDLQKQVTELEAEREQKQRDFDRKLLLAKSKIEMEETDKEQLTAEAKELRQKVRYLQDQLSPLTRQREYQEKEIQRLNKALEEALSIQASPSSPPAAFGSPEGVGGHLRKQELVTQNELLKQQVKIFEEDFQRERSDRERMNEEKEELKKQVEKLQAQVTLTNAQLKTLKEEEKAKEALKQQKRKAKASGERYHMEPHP
UniProt Q03172, residues 189-547: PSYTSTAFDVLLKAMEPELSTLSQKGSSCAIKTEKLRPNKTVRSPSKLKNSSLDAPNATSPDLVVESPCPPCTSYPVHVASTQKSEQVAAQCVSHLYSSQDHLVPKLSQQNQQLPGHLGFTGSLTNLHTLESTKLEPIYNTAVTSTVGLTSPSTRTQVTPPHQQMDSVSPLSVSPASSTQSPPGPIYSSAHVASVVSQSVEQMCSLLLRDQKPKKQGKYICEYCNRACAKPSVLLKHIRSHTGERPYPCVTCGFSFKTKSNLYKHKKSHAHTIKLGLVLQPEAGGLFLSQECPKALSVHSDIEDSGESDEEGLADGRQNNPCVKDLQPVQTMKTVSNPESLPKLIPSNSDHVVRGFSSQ
UniProt Q08122, residues 118-296: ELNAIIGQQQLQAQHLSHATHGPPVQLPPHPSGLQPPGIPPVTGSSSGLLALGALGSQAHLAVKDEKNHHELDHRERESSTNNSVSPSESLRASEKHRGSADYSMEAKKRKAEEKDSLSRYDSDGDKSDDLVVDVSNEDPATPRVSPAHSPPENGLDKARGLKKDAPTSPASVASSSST

T1: mouse GON4L PAH domains (1,458–1,857 a.a.) (mouse) (UniProt Q9DB00)
T1 sequence: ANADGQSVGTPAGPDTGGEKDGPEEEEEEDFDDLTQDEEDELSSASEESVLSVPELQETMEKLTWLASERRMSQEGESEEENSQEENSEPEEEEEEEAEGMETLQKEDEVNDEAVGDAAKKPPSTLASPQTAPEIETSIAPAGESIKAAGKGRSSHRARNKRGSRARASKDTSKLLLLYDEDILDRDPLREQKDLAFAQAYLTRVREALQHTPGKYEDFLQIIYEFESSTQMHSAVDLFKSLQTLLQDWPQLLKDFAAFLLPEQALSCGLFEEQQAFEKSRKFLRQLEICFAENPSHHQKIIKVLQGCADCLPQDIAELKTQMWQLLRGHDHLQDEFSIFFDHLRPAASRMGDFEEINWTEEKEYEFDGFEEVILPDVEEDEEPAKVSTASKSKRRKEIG


The molecules below were run against T1, mouse GON4L PAH domains (1,458–1,857 a.a.) (mouse) (assay: two-hybrid; library screen by Myriad Genetics; LexA and Gal4 system; mouse Gon4l fragments as bait against prey libraries from murine embryos, B lymphocytes and cardiac myocytes; bait and prey plasmids co-transformed into a naïve yeast strain to recapitulate the interaction).

Molecule | binding
Signal-Transducing Adaptor Molecule 1 (from UniProt P70297 367-523) (domain or fragment) | binds
TNIP1 (printed name: TNFAIP3 Interacting Protein 3), A20-binding inhibitor of NF-κB activation (ABIN-3)) (from UniProt Q9WUU8 259-554) (domain or fragment) | binds
Human Immunodeficiency Virus Type I Enhancer Binding Protein 1 (from UniProt Q03172 189-547) (domain or fragment) | binds
Transducin-Like Enhancer Of Split 3, Homolog Of Drosophila E (from UniProt Q08122-3 118-296) (domain or fragment) | binds
Protein phosphatase 3, catalytic subunit, beta isoform (from UniProt P48453-1 410-525) (domain or fragment) | binds
Bromodomain containing 4 (mouse, two-hybrid prey) (from UniProt Q9ESU6-1 821-1006) (domain or fragment) | binds
ski sarcoma viral oncogene homolog (domain or fragment, UniProt Q60698 591-725) LRVAKKEKLREATEAKRNLRKEIERLRAENEKKMKEANESRVRLKRELEQARQVRVCDKGCEAGRLRAKYSAQVEDLQAKLQHAEADREQLRADLLREREAREHLEKVVRELQEQLRPRPRPEHPGGESNAELGP | binds
Aryl hydrocarbon receptor nuclear translocator-like 2 (domain or fragment, UniProt Q2VPD4-1 259-579) LRSWPLNVVGMEKESGGGKDSGPLTCLVAMGRLHPYIVPQKSGKINVRPAEFITRFAMNGKFVYVDQRATAILGYLPQELLGTSCYEYFHQDDHSSLTDKHKAVLQSKEKILTDSYKFRVKDGAFVTLKSEWFSFTNPWTKELEYIVSVNTLVLGRSETRLSLLHCGGSSQSSEDSFRQSCINVPGVSTGTVLGAGSIGTDIANEVLSLQRLHSSSPEDASPSEEVRDDCSVNGGNAYGPASTREPFAVSPSETEVLEAARQHQSTEPAHPHGPLPGDSAQLGFDVLCDSDSIDMAAFMNYLEAEGGLGDPGDFSDIQWAL | binds
Cramped-like, cramp1L (domain or fragment, UniProt Q6PG95 654-897) EHLSSQGQPATRPSKEVPASQLAQQLREEGWSLQTSESLTLAEVYLMMGKPTKLQLEYDWLAVLGPESQAPTAQGQTALSRSSPSALHQQRLLSCLLRLISTEVHPKMAFEANTASTASVRPTQEEQSTTPPGKVVTINSRSPRCSRNPSTLRSNKTFPSASAPCSPGLRNPPRPLLVAGPSSTGSSDSDGGLFAVPTTLPPNSRHGKLFSPSKEAELTFRQHLDSISIQSDFFSPKPKKLRKR | binds
Group specific component (mouse, two-hybrid prey) (domain or fragment, UniProt P21614 16-240) ALERGRDYEKDKVCNELAMLGKEDFRSLSLILYSRKFSSSTFEQVNQLVKEVVSLTEECCAEGADPTCYDTRTSELSVKSCESDAPFPVHPGTPECCTKEGLERKLCMAALSHQPQEFPTYVEPTNDEICEAFRRDPKGFADQFLYEYSSNYGQAPLPLLVAYTKNYLSMVGSCCTSANPTVCFVKERLQMKHLSLLTTMSNRVCSQYAAYGKEKSRLSHLIKLA | binds
Tho complex 1 (mouse, two-hybrid prey) (domain or fragment, UniProt Q8R3N6 338-532) FKSSNYVLTDEQSLWIEDTTKSVYQLLSENPPDGERFSKMVEHILNTEENWNSWKNEGCPSFVKERASDTKPTRVVRKRAAPEDFLGKGPNKKILIGNEELTRLWNLCPDNMEACKSETREYMPTLEEFFEEAIEQADPENMVESEYKAVNNSNYGWRALRLLARRSPHFFQPTNQQFKSLPEYLENMVIKLAKE | binds
Forkhead box a2 (mouse, two-hybrid prey) (domain or fragment, UniProt P35583 5-176) VKMEGHEPSDWSSYYAEPEGYSSVSNMNAGLGMNGMNTYMSMSAAAMGGGSGNMSAGSMNMSSYVGAGMSPSLAGMSPGAGAMAGMSGSAGAAGVAGMGPHLSPSLSPLGGQAAGAMGGLAPYANMNSMSPMYGQAGLSRARDPKTYRRSYTHAKPPYSYISLITMAIQQSP | binds
Intersectin 1 (domain or fragment, UniProt Q9Z0R4-1 65-582) ADMNNDGRMDQVEFSIAMKLIKLKLQGYQLPSTLPPVMKQQPVAISSAPAFGIGGIASMPPLTAVAPVPMGSIPVVGMSPPLVSSVPPAAVPPLANGAPPVIQPLPAFAHPAATLPKSSSFSRSGPGSQLNTKLQKAQSFDVASAPPAAEWAVPQSSRLKYRQLFNSHDKTMSGHLTGPQARTILMQSSLPQAQLASIWNLSDIDQDGKLTAEEFILAMHLIDVAMSGQPLPPVLPPEYIPPSFRRVRSGSGMSVISSSSVDQRLPEEPSSEDEQQPEKKLPVTFEDKKRENFERGSVELEKRRQALLEQQRKEQERLAQLERAEQERKERERQEQERKRQLELEKQLEKQRELERQREEERRKEIERREAAKRELERQRQLEWERNRRQELLNQRNKEQEGTVVLKARRKTLEFELEALNDKKHQLEGKLQDIRCRLATQRQEIESTNKSRELRIAEITHLQQQLQESQQMLGRLIPEKQILSDQLKQVQQNSLHRDSLLTLKRALEAKELARQQLR | binds
FCHSD2/Carom/FCH and double SH3 domains 2/F-BAR And Double SH3 Domains Protein 2 (domain or fragment, UniProt Q3USJ8-1 249-554) LIAFSRTELETCQAIQNTFQFLLENSSKVVRDYNLQLFLQENAVFHKPQPFQFQPCDSDTSRQLESETGTTEEHSLNKEARKWATRVAREHKNIVHQQRVLNELECHGVALSEQSRAELEQKIDEARESIRKAEIIKLKAEARLDLLKQIGVSVDTWLKSAMNQVMEELENERWARPPAVTSNGTLHSLNADAEREEGEEFEDNMDVFDDSSSSPSGTLRNYPLTCKVVYSYKASQPDELTIEEHEVLEVIEDGDMEDWVKARNKVGQVGYVPEKYLQFPTSNSLLSMLQSLAALDSRSHTSSNST | binds
